One molecule from patent publication US8940271B2, “Transmucosal administration of drug compositions for treating and preventing disorders in animals” (Abbott Laboratories, priority 2005, dated 2015) can be followed below.

Series [1] deals with cutaneous wheal and flare reaction caused by the release of histamine from mast cells. To be noted: atopic dogs, TMOM 0.125, 0.5 and 1.0 mg/kg, for up to 24 hours.
A short description of series [2]: Clemastine two-way crossover, tablets vs TMOM, canine. To be noted: ~1 mg/kg.
The conditions of series [3]: dogs, 13 mg/mL clemastine fumarate, 0.25 to 1 mg/kg.
The conditions of series [4]: feline, ~1 mg/kg.

Consider `CN1CCC[C@@H]1CCO[C@](C)(c1ccccc1)c1ccc(Cl)cc1` [clemastine], for which the “inhibition of cutaneous wheal and flare reaction” value in series [1] was 40-70%. The “relative bioavailability (AUC), transmucosal oral vs tablet” value in series [2] is recorded as “significantly better”. Further, the “plasma concentrations with increasing TMOM dose volume (increased number of sprays)” value in series [3] is recorded as “increasing plasma concentrations”. In series [4], the “Tmax, transmucosal oral vs conventional oral administration” value is recorded as “shorter”.
